Test system: atherosclerotic model
Text: 10 ApoE ko mice were fed with regular chow diet and used as negative control group. 50 ApoE ko mice were fed with high fat diet (35% kcal fat, 1% cholesterol) for 8 weeks, and then the plasma samples were collected for lipid profile measurement before the treatment. 50 ApoE ko mice were assigned into 5 groups based on the fasting overnight plasma TC and HDL level.
• 23 Dec. 2011: 60 ApoE mice arrived at chempartner and were housed in the animal facility in the building #3 for the acclimation. • 6 Jan. 2012: Measured the body weight for each mouse. 50 mice were fed with high fat diet and 10 mice were fed with normal chow diet. • 2 Mar. 2012: All mice were fasted over night and plasma samples (about 300 ul whole blood) were collected for lipid profile measurement before treatment with RAAS antibody. • 19 Mar. 2012 to 6 Apr. […] 2012: All mice were fasted over night and plasma sample for each mouse (about 300 ul whole blood) was collected for lipid profile measurement after 16 weeks treatment. Blood glucose was also measured for each mouse. • 9 Jul. 2012: The study was terminated after 16 weeks treatment. Measure BW, sacrificed each mouse, dissected the aorta, heart, liver and kidney and fixed them in 4% PFA.
Antibody products were administrated by intraperitoneal injection every two days (Monday, Wednesday, and Friday). and the positive compound was administered by p.o every day.
The body weight was weighed weekly during the period of treatment.
The fasting overnight blood glucose was measured at the end of study by Roche glucometer.
About 300 ul of blood sample was collected from the orbital vein for each mouse and centrifuged at 7000 rpm for 5 min at 4° C. and the plasma lipid profile was measured by Roche Modular automatic biochemistry analyzer in DaAn Medical Laboratory
After RAAS antibody products treatment for 16 weeks, all mice were sacrificed. Measured body weight and collected blood sample for each mouse. Weighed liver weight and saved a tiny piece of liver into 4% paraformaldehyde (PFA) fixation solution for further analysis. At same time, take the photos with heart, lung, aortas and two kidneys.
1. Sacrificed the mice and dissected the heart, aorta, and arteries under dissecting microscope.
4. Stain with freshly prepared Oil Red O working solution 10 min. • 1). Oil red O stock stain: 0.5% powder in isopropanol • 2). Working solution: dilute with distilled water (3:2) and filter with membrane (0.22 um)
Scanning the glasses slides with the Aperio ScanScope system and analyze with the image proplus software to measure the area of atherosclerotic plaque lession. The results were expressed as the percentage of the total aortic surface area covered by lesions. […]
The results were expressed as the Mean±SEM and statistically evaluated by student's t-test. […]

Structure (SMILES): CC(C)c1c(C(=O)Nc2ccccc2)c(-c2ccccc2)c(-c2ccc(F)cc2)n1CC[C@@H](O)C[C@@H](O)CC(=O)O [Atorvastatin]
- Low Density Lipoprotein (LDL) (16 week treatment): significantly decrease low density lipoprotein
- plasma total cholesterol (TC) (16 week treatment): significantly lower total cholesterol level
- High Density Lipoprotein (HDL) (16 weeks treatment): significantly lower high density lipoprotein
- plasma Triglyceride (TG) (16 weeks treatment): no effect

Source: patent publication US20140086881A1, “GOOD HEALTHY CELLS FOUND IN PROTEINS, THEIR APPLICATIONS, AND PROCESS OF MAKING A MEDIUM TO HARVEST THE CELLS” (priority 2012, published 2014)
